Laboratory results reported in paper PMC6751655.
No constants are given. Whether binding was seen depends on the method and setting. In cells and extracts the contact can be indirect. Some entries that bind do so weakly or less than the wild type. Each block holds one molecule with its values, some of them ahead of it.

The chains behind the UniProt entries cited, without tags or fusion partners. Where a name states a change or a piece, a line headed by the entry shows the natural chain unless it says otherwise.
UniProt P61960: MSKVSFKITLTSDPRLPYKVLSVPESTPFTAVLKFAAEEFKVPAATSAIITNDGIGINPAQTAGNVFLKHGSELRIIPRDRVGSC
UniProt O95863: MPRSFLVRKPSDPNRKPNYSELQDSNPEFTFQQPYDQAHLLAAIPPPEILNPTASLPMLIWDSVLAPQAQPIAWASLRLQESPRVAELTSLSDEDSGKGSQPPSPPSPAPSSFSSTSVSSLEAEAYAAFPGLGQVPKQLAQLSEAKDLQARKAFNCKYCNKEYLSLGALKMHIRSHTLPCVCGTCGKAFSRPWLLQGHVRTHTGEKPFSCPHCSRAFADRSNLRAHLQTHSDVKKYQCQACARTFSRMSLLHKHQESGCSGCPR

What was measured:
[1] = molecular target: Ubiquitin-fold modifier 1 (human (endogenous in AGS)) (UniProt P61960); assay: co-IP; immunoprecipitation with UFM1 antibody from lysates of AGS cells (Figure S4A) or stable AGS cells (Fig. 5a, down panel), overnight at 4 °C; Protein A-Sepharose beads; Western blot
[2] = molecular target: T1, Protein 3-phosphoinositide-dependent protein kinase-1 (human (endogenous in AGS)) (UniProt O15530); assay: co-IP; immunoprecipitation with PDK1 antibody from AGS cell lysates, overnight at 4 °C; Protein A-Sepharose beads; Western blot
T1 sequence: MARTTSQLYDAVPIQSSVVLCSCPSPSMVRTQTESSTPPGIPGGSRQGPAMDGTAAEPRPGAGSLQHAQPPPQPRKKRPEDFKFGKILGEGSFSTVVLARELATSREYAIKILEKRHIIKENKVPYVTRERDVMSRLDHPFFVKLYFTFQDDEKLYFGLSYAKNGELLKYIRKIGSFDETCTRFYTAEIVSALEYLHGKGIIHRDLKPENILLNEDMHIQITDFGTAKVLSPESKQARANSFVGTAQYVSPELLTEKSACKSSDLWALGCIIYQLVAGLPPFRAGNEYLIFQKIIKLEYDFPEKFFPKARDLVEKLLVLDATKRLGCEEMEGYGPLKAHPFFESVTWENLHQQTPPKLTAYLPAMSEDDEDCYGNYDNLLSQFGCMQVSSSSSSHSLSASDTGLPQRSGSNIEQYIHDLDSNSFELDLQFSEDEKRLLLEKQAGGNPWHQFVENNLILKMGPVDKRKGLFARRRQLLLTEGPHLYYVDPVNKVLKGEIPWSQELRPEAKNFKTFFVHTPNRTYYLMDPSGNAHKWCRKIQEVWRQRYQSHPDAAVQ

[3] = molecular target: UFM1 in stable AGS cells (human (AGS cells; species of the lentiviral cDNA not stated)) (UniProt P61960); assay: co-IP; immunoprecipitation with UFM1 antibody from lysates of AGS cells (Figure S4A) or stable AGS cells (Fig. 5a, down panel), overnight at 4 °C; Protein A-Sepharose beads; Western blot

binding [1]: no binding
Molecule: Snail (from UniProt O95863 1-264)

binding [2]: binds
Molecule: Ubiquitin-fold modifier 1 (from UniProt P61960-1 1-85)

binding [3]: binds
B1: Protein 3-phosphoinositide-dependent protein kinase-1 (protein, UniProt O15530 1-556)
chain: T1 sequence
